PubChem BioAssay AID1508597, Cure First | 2020

Purpose: 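Survival screen with siRNA in ovarian cancer cells derived from patients, with or without rucaparib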 (primary screen)
System: human ovarian carcinoma lines grown from tumours: OCI-P5x (papillary serous) and OCI-C5x (clear cell)
Reagents: siRNA pool against human genes, 1.25 pmol siRNA per well
Time to read-out: 72 h or 96 h, depending on the cell culture
Conditions: rucaparib 20 µM (about IC30) or vehicle, present until read-out
Detection: 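Luminescent ATP-based viability assay read 72 or 96 h after transfection, depending on culture, given as normalised percent viability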
Direction: viability, normalised: higher = more viable cells remaining
Active means: 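Active when normalised viability falls below 80 percent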
Calls: active = viability under 80%; inactive = viability 80% or more
This is one part, drawn at random, of about 2,100 deposited reagents. 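Calls flag viability under 80% in either arm, not effects specific to rucaparib; the reference for percent is not stated.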 Reagent sequences are not shown. Not stated in the record: the 100% reference.

| target | PubChem SID | rucaparib or vehicle | cell line | technical replicate | viability, normalised (%) | Call |
| --- | --- | --- | --- | --- | --- | --- |
| TBL1Y | SID405526536 | Rucaparib | OCI-C5x (clear cell) | 1 | 48.3 | active |
| TBL1Y | SID405526536 | Rucaparib | OCI-C5x (clear cell) | 2 | 59.6 | active |
| TBL1Y | SID405526536 | Rucaparib | OCI-C5x (clear cell) | 3 | 48 | active |
| TBL1Y | SID405526536 | Rucaparib | OCI-P5x (serous) | 1 | 68 | active |
| TBL1Y | SID405526536 | Rucaparib | OCI-P5x (serous) | 2 | 59.3 | active |
| TBL1Y | SID405526536 | Rucaparib | OCI-P5x (serous) | 3 | 72.2 | active |
| TBL1Y | SID405526536 | Vehicle | OCI-C5x (clear cell) | 1 | 36.3 | active |
| TBL1Y | SID405526536 | Vehicle | OCI-C5x (clear cell) | 2 | 63.3 | active |
| TBL1Y | SID405526536 | Vehicle | OCI-C5x (clear cell) | 3 | 55.5 | active |
| TBL1Y | SID405526536 | Vehicle | OCI-P5x (serous) | 1 | 62.1 | active |
| TBL1Y | SID405526536 | Vehicle | OCI-P5x (serous) | 2 | 68 | active |
| TBL1Y | SID405526536 | Vehicle | OCI-P5x (serous) | 3 | 89.1 | inactive |

Next part, starting with the last 2 of the part before.
| target | PubChem SID | rucaparib or vehicle | cell line | technical replicate | viability, normalised (%) | Call |
| --- | --- | --- | --- | --- | --- | --- |
| TBL1Y | SID405526536 | Vehicle | OCI-P5x (serous) | 2 | 68 | active |
| TBL1Y | SID405526536 | Vehicle | OCI-P5x (serous) | 3 | 89.1 | inactive |
| CDK17 | SID405527512 | Rucaparib | OCI-C5x (clear cell) | 1 | 48.6 | active |
| CDK17 | SID405527512 | Rucaparib | OCI-C5x (clear cell) | 2 | 54.1 | active |
| CDK17 | SID405527512 | Rucaparib | OCI-C5x (clear cell) | 3 | 50.1 | active |
| CDK17 | SID405527512 | Rucaparib | OCI-P5x (serous) | 1 | 134 | inactive |
| CDK17 | SID405527512 | Rucaparib | OCI-P5x (serous) | 2 | 94.5 | inactive |
| CDK17 | SID405527512 | Rucaparib | OCI-P5x (serous) | 3 | 92.4 | inactive |
| CDK17 | SID405527512 | Vehicle | OCI-C5x (clear cell) | 1 | 66.6 | active |
| CDK17 | SID405527512 | Vehicle | OCI-C5x (clear cell) | 2 | 44 | active |
| CDK17 | SID405527512 | Vehicle | OCI-C5x (clear cell) | 3 | 55.9 | active |
| CDK17 | SID405527512 | Vehicle | OCI-P5x (serous) | 1 | 96.4 | inactive |
| CDK17 | SID405527512 | Vehicle | OCI-P5x (serous) | 2 | 82.8 | inactive |
| CDK17 | SID405527512 | Vehicle | OCI-P5x (serous) | 3 | 105 | inactive |
